{"source": "the M2OR odorant receptor database", "conditions_in_all_cases": "stereoisomer not certain", "key": {"[1]": {"biological_target": "UniProt Q8VH16", "how_it_was_run": "(§1)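 Each receptor–molecule pair is labelled responsive or non-responsive (inactive) according to whether the original authors judged the measured signal statistically different from baseline. The data were taken from the main text and supplementary material of published papers and checked for typos and inconsistencies. Assay methods differed by source, with transient luciferase assays in mammalian cell lines being common.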"}, "[2]": {"biological_target": "UniProt Q8VH20", "how_it_was_run": "as §1"}, "[3]": {"biological_target": "UniProt Q8VH21", "how_it_was_run": "as §1"}, "[4]": {"biological_target": "UniProt Q920P1", "how_it_was_run": "as §1"}, "[5]": {"biological_target": "UniProt Q920P2", "how_it_was_run": "as §1"}, "[6]": {"biological_target": "UniProt Q924H8", "how_it_was_run": "as §1"}}, "note": "This is a selection; strong and weak results do not stand in their true shares. The calls were merged from several studies; some rest on single wells. The list shows a part of the results.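 Note: active if original authors judged signal statistically different from baseline.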", "data": [{"compound": "CCOc1cc(C=O)ccc1O", "values": [{"measurement": "odorant receptor agonist call", "setting": "[1]", "result": "inactive"}, {"measurement": "odorant receptor agonist call", "setting": "[2]", "result": "inactive"}, {"measurement": "odorant receptor agonist call", "setting": "[3]", "result": "inactive"}, {"measurement": "odorant receptor agonist call", "setting": "[4]", "result": "active"}, {"measurement": "odorant receptor agonist call", "setting": "[5]", "result": "active"}, {"measurement": "odorant receptor agonist call", "setting": "[6]", "result": "inactive"}]}, {"compound": "CCC(C)=O", "values": [{"measurement": "odorant receptor agonist call", "setting": "[1]", "result": "inactive"}, {"measurement": "odorant receptor agonist call", "setting": "[2]", "result": "inactive"}, {"measurement": "odorant receptor agonist call", "setting": "[3]", "result": "inactive"}, {"measurement": "odorant receptor agonist call", "setting": "[6]", "result": "inactive"}]}]}
